This test in a line: qHTS Assay to Find Inhibitors of Chronic Active B-Cell Receptor Signaling. As to conditions: ABC-DLBCL IkBa-CBG/CBR reporter, luminescence ratio (green luciferase fused to IkBa over red control in TMD8 lymphoma cells), 4 h. The method in brief: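 Doxycycline induced both beetle luciferases in TMD8 lymphoma cells; IKK-driven degradation limits the IkappaBalpha-fused green signal, while red luminescence normalises for cell number and nonspecific effects. Compounds tested up to 46 uM, 4 hrs.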

Setting [1] is: measured here: CBR red luminescence, cell number.
Setting [2] is: measured here: IkBa-CBG green luminescence.

Some of the results follow. These are further read-outs of the screen, such as a control signal, another cell line or another target. No call is given for them. The list favours compounds with an active or inconclusive main result. Words in brackets tell the shape of the fitted curve; partial curves, single points and poor fits give uncertain potencies.

Regarding `N#Cc1nc(-c2ccc(Cl)cc2)oc1N1CCCCC1`, the AC50 under setting [1] was 3.55 µM [rising, partial curve, poor fit].
On the same count and under the same terms, then `O=C(Nc1ccccc1O)c1csc2c1CCCC2`, with 5.62 µM [falling, partial curve]; and `Nc1ccccc1C(=O)Nc1cccc(C(=O)O)c1`, with 3.16 µM [falling, full curve].
On the same count and under the same terms, then `COc1cccc(Cn2nnc(C(=O)Nc3cc(C)ccc3OC)c2N)c1`, with 12.6 µM [rising, partial curve, poor fit]; and `CCC(C)c1ccc(C(C)NC(=S)NC2CCCCC2)cc1` (centres undefined), with 22.4 µM [falling, single point].
`CC1CCN(c2c([N+](=O)[O-])c(=O)n(-c3ccccc3)c3ccccc23)CC1`: the AC50 under setting [1] was 4.47 µM [falling, full curve, poor fit].
For the compound `CCOCCCNC(=O)C1CCN(S(=O)(=O)N2CCCC2)CC1`, the concentration at half-maximal activity (AC50) under setting [1] was 2.24 µM [falling, full curve, poor fit].
As for `Cc1ccc(C(=O)COC(=O)c2ccco2)cc1C`, the half-maximal activity concentration (AC50) under setting [1] was 2.51 µM [rising, full curve, poor fit].
In the case of `CCn1cc(CN2CCN(C)C(CCO)C2)c2ccccc21` (centres undefined), the AC50 under setting [1] was 2 µM [rising, full curve, poor fit].
Turning to `CCN(CC)c1nc(OCCNC(=O)Nc2ccccc2)nc(N(CC)CC)n1`, the concentration at half-maximal activity (AC50) by setting is: under setting [1], 18.4 µM [falling, single point]; under setting [2], 32.6 µM [rising, partial curve, poor fit].
With `COc1ccc(C)cc1NC(=O)C(Sc1nnc(Nc2ccccc2F)s1)c1ccccc1` (centres undefined), the half-maximal activity concentration (AC50) under setting [2] is 29.1 µM [rising, partial curve, poor fit].
Consider `COCC(C)NCc1ccc(C)cc1C` (centres undefined), for which the half-maximal activity concentration (AC50) under setting [1] is 29.1 µM [rising, single point].
For `Clc1cccc(-c2nn3c(Cn4cnc5ccccc54)nnc3s2)c1`, under setting [1], the AC50 was 0.00517 µM [falling, full curve, poor fit].
As for `Cc1ccc2nc3sc(-c4nnc(-c5ccccc5[N+](=O)[O-])o4)c(N)c3cc2c1`, the half-maximal activity concentration (AC50) under setting [1] was 2.31 µM [falling, partial curve].
For the compound `NC(=S)N/N=C/c1coc2ccc(O)cc2c1=O`, the half-maximal activity concentration (AC50) runs as follows: under setting [1], 0.891 µM [rising, full curve, poor fit]; under setting [2], 0.631 µM [rising, full curve, poor fit].
As for `CCOc1ccc(CN2CCN(Cc3cccn3-c3ncccn3)CC2CCO)cc1` (centres undefined), the AC50 under setting [1] was 35.5 µM [falling, partial curve, poor fit].
In the case of `O=C(c1ccc(S(=O)(=O)Nc2ccccc2)cc1)N1CCC1`, the AC50 under setting [1] was 11.6 µM [rising, partial curve].
Consider `CCOC(=O)Cn1c(=O)c2c(nc3n2CC(C)CN3Cc2ccccc2)n(C)c1=O` (centres undefined), for which the half-maximal activity concentration (AC50) under setting [1] was 7.08 µM [falling, partial curve, poor fit].
The same measure, in the same setting: then `COc1ccc(-c2csc(N3CCN(c4cc(C)nc5ccccc45)CC3)n2)cc1OC`, with 22.4 µM [falling, single point]; and `O=C(O)C1CCCN(S(=O)(=O)Cc2ccccc2)C1` (centres undefined), with 35.5 µM [rising, single point]; and `N#C/C(=C/c1ccc(N2CCOCC2)o1)c1ccc(Cl)cc1`, with 0.891 µM [falling, full curve, poor fit].
The same measure, in the same setting: then `O=C(NCCC1=CCCCC1)c1ccc(F)cc1`, with 29.1 µM [falling, single point]; and `CN1CCN(CCNC(=O)Nc2ccc([N+](=O)[O-])cc2)CC1`, with 35.5 µM [rising, single point]; and `Cc1ccccc1CSCC(=O)NCc1ccco1`, with 14.6 µM [rising, partial curve, poor fit].
In the case of `COc1ccc(/C=C/C(=O)NC(=S)NNC(=O)c2cnccn2)cc1`, the AC50 under setting [1] is 10 µM [rising, single point].
For `COc1cc(CNCCN2CCOCC2)ccc1OCc1cccc(Cl)c1`, the half-maximal activity concentration (AC50) is 29.1 µM [falling, single point] under setting [1] and 32.6 µM [rising, partial curve, poor fit] under setting [2].
As for `CC(C)(C)NC(=O)C(c1ccc(-c2ccccc2)cc1)N(C[C@H]1CC[C@@H]([C@@H]2CC[C@H](CO)O2)O1)C(=O)c1ccccc1F` (some centres undefined), under setting [1], the half-maximal activity concentration (AC50) is 29.1 µM [falling, single point].
Turning to `COc1ccc(CC(=O)N(Cc2ccccc2)C(C)C)cc1`, the half-maximal activity concentration (AC50) under setting [1] was 5.62 µM [rising, single point].
Turning to `COc1ccc(-n2cccc2/C=C2\C(=N)N3N=C(c4ccco4)SC3=NC2=O)cc1`, the AC50 under setting [1] is 1.41 µM [falling, full curve].
For `CC(=O)Nc1cccc(C(=O)N/N=C/c2cccnc2)c1`, the half-maximal activity concentration (AC50) under setting [1] was 35.5 µM [falling, single point].
For `COc1cc([N+](=O)[O-])cc2sc(NC(C)=O)nc12`, the concentration at half-maximal activity (AC50) under setting [1] is 10 µM [falling, partial curve, poor fit].
The same measure, in the same setting: then `c1ccc(CN2CCN(CCCNc3ccc4nnc(-c5ccccc5)n4n3)CC2)cc1`, with 3.66 µM [falling, full curve]; and `O=[N+]([O-])/C(C(Cl)=C(Cl)Cl)=C1\Nc2ccccc2O1`, with 0.794 µM [falling, full curve, poor fit]; and `Cc1csc(NC(=O)C2CCCN2C(=O)Oc2ccccc2)n1` (centres undefined), with 20.6 µM [rising, single point].
With `Cc1sc2ncnc(NCc3ccco3)c2c1C`, the AC50 under setting [1] is 8.91 µM [rising, partial curve].
Still for that read-out and setting: next, `CCS(=O)(=O)N1N=C(c2ccccc2)CC1c1ccc2nccnc2c1` (centres undefined): 23.1 µM [rising, single point]; `O=C(CSCc1cnn(-c2ccccc2)c1-n1cccc1)NCc1cccnc1`: 35.5 µM [falling, single point].
The same measure, in the same setting: then `O=C(N/N=C/c1c[nH]c2ccccc12)c1ccccc1`, with 11.2 µM [falling, partial curve]; and `CC(C)(C)C(=O)Nc1nc(-c2ccc3c(c2)OCO3)cs1`, with 7.31 µM [falling, partial curve, poor fit]; and `CCCC(O)(c1ccc(Br)cc1)C(CN1CCOCC1)c1ccc(Cl)cc1` (centres undefined), with 22.4 µM [falling, single point].
With `COc1ccccc1N(C)S(=O)(=O)c1ccc(C(=O)NCCc2ccc(F)cc2)cc1`, under setting [1], the AC50 was 3.16 µM [rising, single point].

Values taken from PubChem BioAssay AID493014 (National Center for Advancing Translational Sciences (NCATS), 2011).
